Construct, isoform or probe ends are uncertain for at least one entry. A negative result means that nothing was seen under these conditions.

Sequences of proteins named here, by UniProt entry; tags and fusion partners are left off. Residues count along the entry.
UniProt Q90701, 5-433: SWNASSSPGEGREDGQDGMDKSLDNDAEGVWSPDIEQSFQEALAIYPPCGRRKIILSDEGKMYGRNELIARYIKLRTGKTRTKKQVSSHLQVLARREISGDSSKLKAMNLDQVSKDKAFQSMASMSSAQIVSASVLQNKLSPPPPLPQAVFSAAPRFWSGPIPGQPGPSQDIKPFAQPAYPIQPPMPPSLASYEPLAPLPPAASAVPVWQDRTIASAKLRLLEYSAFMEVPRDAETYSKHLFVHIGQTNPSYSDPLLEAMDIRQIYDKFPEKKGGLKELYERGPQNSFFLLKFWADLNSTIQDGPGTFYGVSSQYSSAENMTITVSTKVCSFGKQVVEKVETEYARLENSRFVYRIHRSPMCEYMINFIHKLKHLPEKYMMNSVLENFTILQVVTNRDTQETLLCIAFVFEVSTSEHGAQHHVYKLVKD

The text below walks through data of patent US5776776.

The data set addresses DTEF-1A (fusion, codons from Ser5 to C-terminus) (Gallus gallus) (UniProt Q90701). The data set can be described thus: competition with a labelled probe. Conditions: excess mutant competitor did not compete; mutant oligo sequence taken from Example 2 (RTEF-1 gel shift), presumed the same; protein translated in vitro; protein details: N-terminal pRSET vector fusion (Invitrogen); variant of wild-type M-CAT DNA probe/competitor. Background: A gel shift assay detects complexes by their altered migration in electrophoresis.

“TCGGGTGTTGGGTACCTCTCTGC / CCGAGCAGAGAGGTACCCAACAC [mutant M-CAT competitor]”: the binding result was “no binding”.
